Experimental data: the supplement of paper PMC11732987, “Enantioselective OTUD7B fragment discovery through chemoproteomics screening and high-throughput optimisation” (Communications Chemistry, 2025)
Some of the results follow. The data scatter; read single values as rough.

Sequences of proteins named here, by UniProt entry; tags and fusion partners are left off. A change or cut given only in a name is not applied to a line headed by its entry. Residues count along the entry.
UniProt Q8N3X1, 103-126: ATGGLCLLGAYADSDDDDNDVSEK
UniProt P22830: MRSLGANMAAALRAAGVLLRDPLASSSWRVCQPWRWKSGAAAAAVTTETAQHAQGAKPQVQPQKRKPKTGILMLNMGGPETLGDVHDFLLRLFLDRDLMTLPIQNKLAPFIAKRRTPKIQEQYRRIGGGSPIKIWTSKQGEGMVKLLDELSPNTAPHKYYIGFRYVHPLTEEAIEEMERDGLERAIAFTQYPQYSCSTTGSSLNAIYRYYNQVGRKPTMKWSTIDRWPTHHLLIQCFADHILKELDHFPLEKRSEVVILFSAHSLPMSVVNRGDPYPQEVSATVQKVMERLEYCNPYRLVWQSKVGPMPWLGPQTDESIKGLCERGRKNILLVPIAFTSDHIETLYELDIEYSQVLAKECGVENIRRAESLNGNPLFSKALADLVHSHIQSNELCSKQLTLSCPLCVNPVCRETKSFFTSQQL
UniProt Q14C86: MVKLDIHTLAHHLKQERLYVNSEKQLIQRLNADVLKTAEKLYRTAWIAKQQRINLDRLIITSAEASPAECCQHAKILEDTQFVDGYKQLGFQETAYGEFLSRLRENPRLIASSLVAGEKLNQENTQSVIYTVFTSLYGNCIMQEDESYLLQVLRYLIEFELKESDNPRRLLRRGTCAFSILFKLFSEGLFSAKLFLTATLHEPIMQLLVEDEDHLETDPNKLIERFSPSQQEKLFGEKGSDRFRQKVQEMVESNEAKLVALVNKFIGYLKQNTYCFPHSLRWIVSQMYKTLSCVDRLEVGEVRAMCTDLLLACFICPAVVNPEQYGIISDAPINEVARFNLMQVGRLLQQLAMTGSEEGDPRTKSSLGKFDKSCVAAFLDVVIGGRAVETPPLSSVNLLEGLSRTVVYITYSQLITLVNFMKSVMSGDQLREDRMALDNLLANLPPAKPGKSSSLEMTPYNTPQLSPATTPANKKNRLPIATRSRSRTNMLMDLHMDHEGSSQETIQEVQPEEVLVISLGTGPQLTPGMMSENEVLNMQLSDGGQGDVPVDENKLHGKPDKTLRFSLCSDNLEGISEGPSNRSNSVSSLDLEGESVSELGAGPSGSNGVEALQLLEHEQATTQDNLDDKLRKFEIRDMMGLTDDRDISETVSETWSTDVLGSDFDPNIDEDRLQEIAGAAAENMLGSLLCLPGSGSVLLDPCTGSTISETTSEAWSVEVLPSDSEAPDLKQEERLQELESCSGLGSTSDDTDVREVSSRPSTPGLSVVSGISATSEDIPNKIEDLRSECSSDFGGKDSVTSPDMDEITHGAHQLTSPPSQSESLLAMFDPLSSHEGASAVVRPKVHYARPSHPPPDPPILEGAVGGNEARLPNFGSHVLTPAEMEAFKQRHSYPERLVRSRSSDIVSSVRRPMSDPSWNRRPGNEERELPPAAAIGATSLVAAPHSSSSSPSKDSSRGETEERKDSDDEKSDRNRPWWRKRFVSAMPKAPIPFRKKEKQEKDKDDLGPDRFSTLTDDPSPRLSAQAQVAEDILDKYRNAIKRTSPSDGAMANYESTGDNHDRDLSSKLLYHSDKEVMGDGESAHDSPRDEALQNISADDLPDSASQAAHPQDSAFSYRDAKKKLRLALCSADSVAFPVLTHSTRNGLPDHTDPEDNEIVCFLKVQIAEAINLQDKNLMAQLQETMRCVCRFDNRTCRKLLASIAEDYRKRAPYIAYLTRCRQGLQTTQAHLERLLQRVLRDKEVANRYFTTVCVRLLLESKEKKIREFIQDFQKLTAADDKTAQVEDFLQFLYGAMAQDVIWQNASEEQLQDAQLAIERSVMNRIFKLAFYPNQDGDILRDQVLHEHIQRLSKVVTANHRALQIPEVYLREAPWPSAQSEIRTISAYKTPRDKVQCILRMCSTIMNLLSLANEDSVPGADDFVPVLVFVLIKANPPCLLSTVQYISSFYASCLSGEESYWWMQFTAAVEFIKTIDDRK
UniProt Q6PIW4, 151-170: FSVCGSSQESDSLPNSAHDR
UniProt Q9NSD9: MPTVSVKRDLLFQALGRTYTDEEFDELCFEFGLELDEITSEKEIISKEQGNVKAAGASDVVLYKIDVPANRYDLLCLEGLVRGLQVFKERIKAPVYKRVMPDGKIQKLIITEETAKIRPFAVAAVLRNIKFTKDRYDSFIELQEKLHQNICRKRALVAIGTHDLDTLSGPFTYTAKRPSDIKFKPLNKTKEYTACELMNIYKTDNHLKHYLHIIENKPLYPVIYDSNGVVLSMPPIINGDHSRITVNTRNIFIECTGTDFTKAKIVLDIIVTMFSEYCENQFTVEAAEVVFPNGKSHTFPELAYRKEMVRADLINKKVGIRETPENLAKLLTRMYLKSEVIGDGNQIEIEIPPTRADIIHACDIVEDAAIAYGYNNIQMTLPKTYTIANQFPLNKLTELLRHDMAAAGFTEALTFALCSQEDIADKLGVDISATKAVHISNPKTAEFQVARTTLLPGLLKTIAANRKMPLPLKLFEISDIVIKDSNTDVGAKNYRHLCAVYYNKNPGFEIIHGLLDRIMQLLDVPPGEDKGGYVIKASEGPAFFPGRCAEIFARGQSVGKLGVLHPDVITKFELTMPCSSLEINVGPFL
UniProt Q96ME1: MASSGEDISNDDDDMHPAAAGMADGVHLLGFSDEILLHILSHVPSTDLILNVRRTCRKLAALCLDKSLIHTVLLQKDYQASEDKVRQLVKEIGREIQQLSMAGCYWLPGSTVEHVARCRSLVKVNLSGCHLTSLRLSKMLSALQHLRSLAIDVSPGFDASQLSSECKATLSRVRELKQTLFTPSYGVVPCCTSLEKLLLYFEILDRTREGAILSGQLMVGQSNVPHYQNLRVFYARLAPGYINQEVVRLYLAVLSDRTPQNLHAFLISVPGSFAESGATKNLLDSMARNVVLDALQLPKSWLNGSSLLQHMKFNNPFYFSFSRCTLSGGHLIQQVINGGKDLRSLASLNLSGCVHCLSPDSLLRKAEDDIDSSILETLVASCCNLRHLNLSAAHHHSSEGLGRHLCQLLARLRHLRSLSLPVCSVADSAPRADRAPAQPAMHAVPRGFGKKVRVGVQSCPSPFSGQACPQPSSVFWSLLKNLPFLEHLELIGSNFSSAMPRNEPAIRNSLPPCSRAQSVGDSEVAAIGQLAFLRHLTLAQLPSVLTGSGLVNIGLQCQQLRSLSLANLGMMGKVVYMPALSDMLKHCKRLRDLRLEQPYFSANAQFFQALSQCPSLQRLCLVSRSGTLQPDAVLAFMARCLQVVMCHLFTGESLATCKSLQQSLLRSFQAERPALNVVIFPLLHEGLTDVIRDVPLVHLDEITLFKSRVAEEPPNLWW
UniProt P22570: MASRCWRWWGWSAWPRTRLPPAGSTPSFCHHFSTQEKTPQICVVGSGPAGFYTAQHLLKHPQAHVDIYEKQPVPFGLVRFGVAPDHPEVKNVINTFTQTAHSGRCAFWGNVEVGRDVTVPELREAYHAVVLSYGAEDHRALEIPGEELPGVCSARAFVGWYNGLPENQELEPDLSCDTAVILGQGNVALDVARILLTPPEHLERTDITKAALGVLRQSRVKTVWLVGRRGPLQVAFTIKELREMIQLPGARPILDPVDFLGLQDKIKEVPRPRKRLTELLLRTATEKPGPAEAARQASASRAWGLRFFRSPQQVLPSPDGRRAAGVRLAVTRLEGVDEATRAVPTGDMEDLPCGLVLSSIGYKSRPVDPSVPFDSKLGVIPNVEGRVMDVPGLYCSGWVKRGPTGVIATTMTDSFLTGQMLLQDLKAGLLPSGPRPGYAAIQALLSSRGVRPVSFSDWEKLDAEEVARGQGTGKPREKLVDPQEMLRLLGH
UniProt Q9H469: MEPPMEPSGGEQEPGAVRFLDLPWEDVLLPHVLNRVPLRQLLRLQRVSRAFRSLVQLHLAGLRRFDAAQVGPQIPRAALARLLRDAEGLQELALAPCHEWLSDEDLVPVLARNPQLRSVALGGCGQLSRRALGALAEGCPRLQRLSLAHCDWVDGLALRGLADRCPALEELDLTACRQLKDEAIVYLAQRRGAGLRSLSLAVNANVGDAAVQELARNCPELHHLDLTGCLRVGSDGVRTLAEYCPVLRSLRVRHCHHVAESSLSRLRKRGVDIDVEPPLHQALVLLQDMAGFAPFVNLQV
UniProt Q13480, 365-384: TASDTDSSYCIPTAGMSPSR
UniProt Q96IG2: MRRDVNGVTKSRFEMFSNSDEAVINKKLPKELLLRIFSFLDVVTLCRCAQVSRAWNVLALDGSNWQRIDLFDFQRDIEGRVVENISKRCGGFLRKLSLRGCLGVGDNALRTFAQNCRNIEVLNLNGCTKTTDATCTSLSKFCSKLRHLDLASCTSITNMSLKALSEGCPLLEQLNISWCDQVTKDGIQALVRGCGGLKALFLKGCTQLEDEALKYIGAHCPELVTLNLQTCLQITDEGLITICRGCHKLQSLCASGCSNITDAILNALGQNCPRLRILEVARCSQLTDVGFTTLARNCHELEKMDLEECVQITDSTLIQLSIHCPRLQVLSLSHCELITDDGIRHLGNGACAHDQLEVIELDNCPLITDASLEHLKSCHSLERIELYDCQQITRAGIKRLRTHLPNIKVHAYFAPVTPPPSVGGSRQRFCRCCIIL
UniProt Q9UET6: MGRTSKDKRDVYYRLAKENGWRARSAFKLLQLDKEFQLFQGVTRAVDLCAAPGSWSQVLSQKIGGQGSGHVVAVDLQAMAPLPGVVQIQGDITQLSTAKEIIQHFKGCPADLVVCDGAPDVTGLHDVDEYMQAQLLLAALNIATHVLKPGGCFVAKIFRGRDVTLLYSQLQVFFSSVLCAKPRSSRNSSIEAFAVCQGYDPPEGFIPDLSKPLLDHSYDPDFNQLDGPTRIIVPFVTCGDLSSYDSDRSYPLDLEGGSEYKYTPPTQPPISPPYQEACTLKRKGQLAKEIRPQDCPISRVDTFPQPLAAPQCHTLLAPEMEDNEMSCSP
UniProt P16591: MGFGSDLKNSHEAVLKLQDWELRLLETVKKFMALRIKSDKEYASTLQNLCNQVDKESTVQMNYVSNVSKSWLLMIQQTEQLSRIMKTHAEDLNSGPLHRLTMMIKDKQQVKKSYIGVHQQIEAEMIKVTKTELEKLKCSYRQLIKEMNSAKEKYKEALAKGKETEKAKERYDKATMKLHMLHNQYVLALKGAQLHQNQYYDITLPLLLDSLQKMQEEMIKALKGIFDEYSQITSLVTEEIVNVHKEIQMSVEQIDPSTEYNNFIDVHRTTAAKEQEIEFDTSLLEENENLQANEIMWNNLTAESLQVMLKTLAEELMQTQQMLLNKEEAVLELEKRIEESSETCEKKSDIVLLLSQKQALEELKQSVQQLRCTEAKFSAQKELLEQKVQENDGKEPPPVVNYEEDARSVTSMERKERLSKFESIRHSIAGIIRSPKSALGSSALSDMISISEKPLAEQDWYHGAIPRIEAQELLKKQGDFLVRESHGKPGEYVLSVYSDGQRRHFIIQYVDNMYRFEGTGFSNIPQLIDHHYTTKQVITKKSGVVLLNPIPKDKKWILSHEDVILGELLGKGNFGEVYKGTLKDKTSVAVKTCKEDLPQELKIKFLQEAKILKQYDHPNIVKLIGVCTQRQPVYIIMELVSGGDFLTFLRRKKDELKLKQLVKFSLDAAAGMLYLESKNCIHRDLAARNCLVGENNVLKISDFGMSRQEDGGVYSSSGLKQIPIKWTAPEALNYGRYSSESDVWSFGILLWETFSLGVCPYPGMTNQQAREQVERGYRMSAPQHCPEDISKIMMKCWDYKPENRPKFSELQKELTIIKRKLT
UniProt O94868: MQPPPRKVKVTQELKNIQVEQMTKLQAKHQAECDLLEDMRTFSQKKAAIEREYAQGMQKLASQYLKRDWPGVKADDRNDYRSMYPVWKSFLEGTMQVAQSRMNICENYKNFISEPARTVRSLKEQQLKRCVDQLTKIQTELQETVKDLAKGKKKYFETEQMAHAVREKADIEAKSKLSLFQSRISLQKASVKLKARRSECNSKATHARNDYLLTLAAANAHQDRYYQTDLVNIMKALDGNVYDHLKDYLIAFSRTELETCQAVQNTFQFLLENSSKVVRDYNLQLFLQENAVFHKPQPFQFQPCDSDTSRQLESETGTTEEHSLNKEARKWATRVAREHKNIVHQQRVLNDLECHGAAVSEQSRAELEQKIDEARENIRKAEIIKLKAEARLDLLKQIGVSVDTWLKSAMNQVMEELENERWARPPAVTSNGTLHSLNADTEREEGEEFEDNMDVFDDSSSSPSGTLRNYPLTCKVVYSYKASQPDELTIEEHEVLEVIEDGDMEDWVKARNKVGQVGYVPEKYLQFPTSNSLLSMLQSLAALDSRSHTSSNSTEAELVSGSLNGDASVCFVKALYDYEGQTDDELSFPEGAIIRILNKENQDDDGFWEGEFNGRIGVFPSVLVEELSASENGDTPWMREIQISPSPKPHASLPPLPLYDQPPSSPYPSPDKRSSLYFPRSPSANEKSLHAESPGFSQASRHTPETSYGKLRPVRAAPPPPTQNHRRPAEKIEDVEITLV

The targets below were run with ClCC(=O)N[C@@H]1CCCc2ccccc12 (assay: log2 mean competition ratio of IA-DTB cysteine labelling (DMSO/compound) (log2 ratio); higher = stronger cysteine engagement by compound). Conditions: 50 µM; treatment time: 4 h; cell line lysate: HEK293T.
Protocol: (§1)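 IA-DTB competitive cysteine chemoproteomics in HEK293T RIPA lysate. Lysates were treated with compound 29 or 30 at 50 or 200 µM for 4 h, then IA-DTB (500 µM, 1 h), trypsin-digested, NeutrAvidin-enriched and analysed by diaPASEF. Competition ratio = intensity DMSO / intensity compound (n=4 treated, n=64 DMSO); binding: mean log2 CR ≥ 1 and p ≤ 0.05 plus QC filters. Target is the cysteine site.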
With FASTKD3 C378 (UniProt Q14CZ7) the “log2 mean competition ratio” value was -0.0646. With GALT C75 (UniProt P07902) the “log2 mean competition ratio” value was -0.266. FNBP4 C108 (UniProt Q8N3X1) was tested, and the “log2 mean competition ratio” value was 0.0506. For FECH C360 (UniProt P22830), the “log2 mean competition ratio” value was 0.0663. For FBXO38 C803 (UniProt Q6PIJ6), the “log2 mean competition ratio” value was 0.0474. For GARRE1 C512, the “log2 mean competition ratio” value was 0.109. In the case of FASTKD5 C670 (UniProt Q7L8L6), the “log2 mean competition ratio” value is reported as 0.238. GALK1 C203 (UniProt P51570) was tested, and the “log2 mean competition ratio” value was -0.254.

Same assay, conditions: 200 µM; treatment time: 4 h; cell line lysate: HEK293T
FASN C1759 was tested, and the “log2 mean competition ratio” value was -0.633. FYCO1 C928 (UniProt Q9BQS8) was tested, and the “log2 mean competition ratio” value was 0.514. For FLAD1 C147 (UniProt Q8NFF5), the “log2 mean competition ratio” value was -0.0286. In the case of GAPVD1 C1160 (UniProt Q14C86), the “log2 mean competition ratio” value is reported as -0.0683. FLAD1 C236 (UniProt Q8NFF5) was tested, and the “log2 mean competition ratio” value was 0.145. With FAT1 C3023 (UniProt Q14517) the “log2 mean competition ratio” value was -0.172. FBXO10 C778 was tested, and the “log2 mean competition ratio” value was 0.226. In the case of FIGNL1 C154 (UniProt Q6PIW4), the “log2 mean competition ratio” value is reported as 0.184. With GARRE1 C196 the “log2 mean competition ratio” value was -0.0885. In the case of FBXO44;FBXO6 C30;(C37), the “log2 mean competition ratio” value is reported as 0.295. FARSB C195 (UniProt Q9NSD9) was tested, and the “log2 mean competition ratio” value was 0.03. FASTKD1 C300 (UniProt Q53R41) was tested, and the “log2 mean competition ratio” value was -0.149. In the case of FZD3 C165, the “log2 mean competition ratio” value is reported as -0.0542. In the case of FBXL18 C63 (UniProt Q96ME1), the “log2 mean competition ratio” value is reported as 0.0809. In the case of FYCO1 C1110 (UniProt Q9BQS8), the “log2 mean competition ratio” value is reported as -0.127. In the case of FASTKD1 C838 (UniProt Q53R41), the “log2 mean competition ratio” value is reported as -0.451. In the case of FLNA C1402, the “log2 mean competition ratio” value is reported as -0.00725. With FARSB C151 (UniProt Q9NSD9) the “log2 mean competition ratio” value was -0.107. With FBXO45 C69 (UniProt P0C2W1) the “log2 mean competition ratio” value was 0.404. In the case of FDXR C105 (UniProt P22570), the “log2 mean competition ratio” value is reported as -0.0454. FBXL15 C139 (UniProt Q9H469) was tested, and the “log2 mean competition ratio” value was 0.552. In the case of GAB1 C374 (UniProt Q13480), the “log2 mean competition ratio” value is reported as 0.18. FBXL20 C127 (UniProt Q96IG2) was tested, and the “log2 mean competition ratio” value was 0.228. In the case of FTSJ1 C295 (UniProt Q9UET6), the “log2 mean competition ratio” value is reported as 0.0144. FER C627 (UniProt P16591) was tested, and the “log2 mean competition ratio” value was -0.0176. FBXL3 C331 was tested, and the “log2 mean competition ratio” value was 0.113. FCHSD2 C33 (UniProt O94868) was tested, and the “log2 mean competition ratio” value was 0.214. For GAB2 C9 (UniProt Q9UQC2), the “log2 mean competition ratio” value was -0.155. With FPGT C424 (UniProt O14772) the “log2 mean competition ratio” value was -0.175. For FASTKD3 C378 (UniProt Q14CZ7), the “log2 mean competition ratio” value was 0.0383. For GALT C75 (UniProt P07902), the “log2 mean competition ratio” value was 0.268. FNBP4 C108 (UniProt Q8N3X1) was tested, and the “log2 mean competition ratio” value was 0.18. For FECH C360 (UniProt P22830), the “log2 mean competition ratio” value was -0.264. In the case of FBXO38 C803 (UniProt Q6PIJ6), the “log2 mean competition ratio” value is reported as 0.111. In the case of GARRE1 C512, the “log2 mean competition ratio” value is reported as 0.134. FASTKD5 C670 (UniProt Q7L8L6) was tested, and the “log2 mean competition ratio” value was 0.0969. With GALK1 C203 (UniProt P51570) the “log2 mean competition ratio” value was -0.122.

The targets below were run with ClCC(=O)N[C@H]1CCCc2ccccc12 in the same assay as above. Conditions: 50 µM; treatment time: 4 h; cell line lysate: HEK293T.
Protocol: as §1
For FASN C1759, the “log2 mean competition ratio” value was -0.0376. With FYCO1 C928 (UniProt Q9BQS8) the “log2 mean competition ratio” value was -0.243. In the case of FLAD1 C147 (UniProt Q8NFF5), the “log2 mean competition ratio” value is reported as 0.0637. For GAPVD1 C1160 (UniProt Q14C86), the “log2 mean competition ratio” value was -0.251. For FLAD1 C236 (UniProt Q8NFF5), the “log2 mean competition ratio” value was 0.0942. FAT1 C3023 (UniProt Q14517) was tested, and the “log2 mean competition ratio” value was -0.215. With FBXO10 C778 the “log2 mean competition ratio” value was -0.187. FIGNL1 C154 (UniProt Q6PIW4) was tested, and the “log2 mean competition ratio” value was 0.332. With GARRE1 C196 the “log2 mean competition ratio” value was -0.183. FBXO44;FBXO6 C30;(C37) was tested, and the “log2 mean competition ratio” value was 0.0377. For FARSB C195 (UniProt Q9NSD9), the “log2 mean competition ratio” value was -0.11. With FASTKD1 C300 (UniProt Q53R41) the “log2 mean competition ratio” value was -0.275. With FZD3 C165 the “log2 mean competition ratio” value was 0.141. With FBXL18 C63 (UniProt Q96ME1) the “log2 mean competition ratio” value was -0.586. For FYCO1 C1110 (UniProt Q9BQS8), the “log2 mean competition ratio” value was 0.0671. In the case of FASTKD1 C838 (UniProt Q53R41), the “log2 mean competition ratio” value is reported as 0.473. FLNA C1402 was tested, and the “log2 mean competition ratio” value was 0.297. FARSB C151 (UniProt Q9NSD9) was tested, and the “log2 mean competition ratio” value was 0.179. In the case of FBXO45 C69 (UniProt P0C2W1), the “log2 mean competition ratio” value is reported as -0.36. With FDXR C105 (UniProt P22570) the “log2 mean competition ratio” value was 0.125. FBXL15 C139 (UniProt Q9H469) was tested, and the “log2 mean competition ratio” value was 0.283. For GAB1 C374 (UniProt Q13480), the “log2 mean competition ratio” value was 0.295. With FBXL20 C127 (UniProt Q96IG2) the “log2 mean competition ratio” value was 0.248. FTSJ1 C295 (UniProt Q9UET6) was tested, and the “log2 mean competition ratio” value was -0.0305. With FER C627 (UniProt P16591) the “log2 mean competition ratio” value was 0.546. With FBXL3 C331 the “log2 mean competition ratio” value was -0.0985. For FCHSD2 C33 (UniProt O94868), the “log2 mean competition ratio” value was 0.00827. With GAB2 C9 (UniProt Q9UQC2) the “log2 mean competition ratio” value was -0.147. FPGT C424 (UniProt O14772) was tested, and the “log2 mean competition ratio” value was 0.454. In the case of FASTKD3 C378 (UniProt Q14CZ7), the “log2 mean competition ratio” value is reported as 0.241. GALT C75 (UniProt P07902) was tested, and the “log2 mean competition ratio” value was -0.38. With FNBP4 C108 (UniProt Q8N3X1) the “log2 mean competition ratio” value was 0.469. With FECH C360 (UniProt P22830) the “log2 mean competition ratio” value was -0.0597. FBXO38 C803 (UniProt Q6PIJ6) was tested, and the “log2 mean competition ratio” value was 0.151. For GARRE1 C512, the “log2 mean competition ratio” value was 0.154. In the case of FASTKD5 C670 (UniProt Q7L8L6), the “log2 mean competition ratio” value is reported as 0.0737. In the case of GALK1 C203 (UniProt P51570), the “log2 mean competition ratio” value is reported as 0.633.

Same assay, conditions: 200 µM; treatment time: 4 h; cell line lysate: HEK293T
FASN C1759 was tested, and the “log2 mean competition ratio” value was -0.576. FYCO1 C928 (UniProt Q9BQS8) was tested, and the “log2 mean competition ratio” value was -0.0109. For FLAD1 C147 (UniProt Q8NFF5), the “log2 mean competition ratio” value was 0.0305. For GAPVD1 C1160 (UniProt Q14C86), the “log2 mean competition ratio” value was -0.315. In the case of FLAD1 C236 (UniProt Q8NFF5), the “log2 mean competition ratio” value is reported as 0.034. FAT1 C3023 (UniProt Q14517) was tested, and the “log2 mean competition ratio” value was 0.0142. FBXO10 C778 was tested, and the “log2 mean competition ratio” value was 0.0486. For FIGNL1 C154 (UniProt Q6PIW4), the “log2 mean competition ratio” value was 0.0414. With GARRE1 C196 the “log2 mean competition ratio” value was 0.0128. For FBXO44;FBXO6 C30;(C37), the “log2 mean competition ratio” value was 0.239. With FARSB C195 (UniProt Q9NSD9) the “log2 mean competition ratio” value was -0.114. FASTKD1 C300 (UniProt Q53R41) was tested, and the “log2 mean competition ratio” value was -0.0521. In the case of FZD3 C165, the “log2 mean competition ratio” value is reported as -0.146. With FBXL18 C63 (UniProt Q96ME1) the “log2 mean competition ratio” value was 0.0568. FYCO1 C1110 (UniProt Q9BQS8) was tested, and the “log2 mean competition ratio” value was 0.0146. FASTKD1 C838 (UniProt Q53R41) was tested, and the “log2 mean competition ratio” value was 0.00804. In the case of FLNA C1402, the “log2 mean competition ratio” value is reported as 0.0913. With FARSB C151 (UniProt Q9NSD9) the “log2 mean competition ratio” value was -0.227. FBXO45 C69 (UniProt P0C2W1) was tested, and the “log2 mean competition ratio” value was 0.62. For FDXR C105 (UniProt P22570), the “log2 mean competition ratio” value was 0.0456. With FBXL15 C139 (UniProt Q9H469) the “log2 mean competition ratio” value was 0.409. In the case of GAB1 C374 (UniProt Q13480), the “log2 mean competition ratio” value is reported as 0.393. For FBXL20 C127 (UniProt Q96IG2), the “log2 mean competition ratio” value was 0.299. FTSJ1 C295 (UniProt Q9UET6) was tested, and the “log2 mean competition ratio” value was 0.0945. In the case of FER C627 (UniProt P16591), the “log2 mean competition ratio” value is reported as 0.052. With FBXL3 C331 the “log2 mean competition ratio” value was 0.167. FCHSD2 C33 (UniProt O94868) was tested, and the “log2 mean competition ratio” value was 0.345. In the case of GAB2 C9 (UniProt Q9UQC2), the “log2 mean competition ratio” value is reported as 0.564. FPGT C424 (UniProt O14772) was tested, and the “log2 mean competition ratio” value was -0.19. With FASTKD3 C378 (UniProt Q14CZ7) the “log2 mean competition ratio” value was -0.165. For GALT C75 (UniProt P07902), the “log2 mean competition ratio” value was 0.218. In the case of FNBP4 C108 (UniProt Q8N3X1), the “log2 mean competition ratio” value is reported as 0.215. With FECH C360 (UniProt P22830) the “log2 mean competition ratio” value was -0.0448. With FBXO38 C803 (UniProt Q6PIJ6) the “log2 mean competition ratio” value was 0.178. GARRE1 C512 was tested, and the “log2 mean competition ratio” value was -0.131. FASTKD5 C670 (UniProt Q7L8L6) was tested, and the “log2 mean competition ratio” value was 0.294. In the case of GALK1 C203 (UniProt P51570), the “log2 mean competition ratio” value is reported as 0.0847.
